The values that follow are results of earlier work, collected in patent publication EP2228055A1, “Riluzole liquid emulsions” (ITALFARMACO S.p.A., priority 2009, dated 2010).

`Nc1nc2ccc(OC(F)(F)F)cc2s1` [Riluzole, 6-(trifluoromethoxy)benzothiazol-2-amine]: the solubility entry (pH 1.2) was “about 12 mg/mL”. The solubility in water result (water) was “about 0.3 mg/mL”.
